Source: article PMC4378271
These are yes or no findings as the source states them, for the method shown. Binding seen in cells or lysates may run through a third protein. Some results given as binding are weak or reduced against the parent protein; the word gives no strength.

By UniProt entry, the sequences of proteins in these tests, tags left out. Residues count along the entry.
UniProt Q3UVX5, residues 19-1203: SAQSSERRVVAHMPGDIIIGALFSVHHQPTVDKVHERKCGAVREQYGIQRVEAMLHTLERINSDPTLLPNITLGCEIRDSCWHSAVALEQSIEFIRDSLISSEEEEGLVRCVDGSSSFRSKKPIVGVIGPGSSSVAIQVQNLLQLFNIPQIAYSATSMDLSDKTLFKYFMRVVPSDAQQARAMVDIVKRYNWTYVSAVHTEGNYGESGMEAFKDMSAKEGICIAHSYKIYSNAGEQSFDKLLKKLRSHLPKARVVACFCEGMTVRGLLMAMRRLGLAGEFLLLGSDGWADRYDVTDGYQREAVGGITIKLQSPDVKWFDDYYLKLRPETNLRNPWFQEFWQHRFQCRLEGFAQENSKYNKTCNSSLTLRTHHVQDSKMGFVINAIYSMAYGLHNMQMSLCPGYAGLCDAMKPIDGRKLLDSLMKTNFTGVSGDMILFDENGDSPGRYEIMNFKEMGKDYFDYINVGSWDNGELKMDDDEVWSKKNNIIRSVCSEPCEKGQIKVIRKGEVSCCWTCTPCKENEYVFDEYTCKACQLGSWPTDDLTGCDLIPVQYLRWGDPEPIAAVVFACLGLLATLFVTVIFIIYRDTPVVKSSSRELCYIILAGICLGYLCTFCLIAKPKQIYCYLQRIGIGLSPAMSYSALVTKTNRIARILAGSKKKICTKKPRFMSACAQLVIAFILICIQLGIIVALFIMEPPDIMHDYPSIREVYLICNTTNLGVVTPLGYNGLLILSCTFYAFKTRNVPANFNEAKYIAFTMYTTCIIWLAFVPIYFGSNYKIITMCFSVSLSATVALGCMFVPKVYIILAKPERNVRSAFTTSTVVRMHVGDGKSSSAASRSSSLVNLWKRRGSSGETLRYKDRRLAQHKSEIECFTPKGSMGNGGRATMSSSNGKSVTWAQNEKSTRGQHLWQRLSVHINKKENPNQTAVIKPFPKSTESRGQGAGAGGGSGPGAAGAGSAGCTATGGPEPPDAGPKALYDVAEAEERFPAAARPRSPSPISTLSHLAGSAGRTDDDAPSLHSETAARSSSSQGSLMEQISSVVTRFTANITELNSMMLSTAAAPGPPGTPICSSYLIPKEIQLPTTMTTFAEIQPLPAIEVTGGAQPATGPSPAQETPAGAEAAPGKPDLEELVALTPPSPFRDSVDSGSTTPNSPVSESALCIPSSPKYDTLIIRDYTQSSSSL
UniProt P11798: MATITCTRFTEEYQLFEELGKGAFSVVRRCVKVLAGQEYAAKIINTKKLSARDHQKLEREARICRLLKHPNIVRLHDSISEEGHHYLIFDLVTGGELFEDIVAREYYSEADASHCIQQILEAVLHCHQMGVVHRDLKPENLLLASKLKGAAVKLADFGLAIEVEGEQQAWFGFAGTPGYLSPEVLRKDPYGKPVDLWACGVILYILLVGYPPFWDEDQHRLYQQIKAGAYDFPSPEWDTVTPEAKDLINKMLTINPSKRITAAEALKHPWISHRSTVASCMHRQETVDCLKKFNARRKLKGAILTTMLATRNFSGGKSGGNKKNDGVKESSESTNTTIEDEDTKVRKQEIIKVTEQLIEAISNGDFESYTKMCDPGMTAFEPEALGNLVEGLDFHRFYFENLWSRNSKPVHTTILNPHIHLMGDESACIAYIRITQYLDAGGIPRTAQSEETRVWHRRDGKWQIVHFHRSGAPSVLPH

Target: endogenous mGluR5a (mouse hippocampus) (mouse (endogenous in hippocampus)) (UniProt Q3UVX5)
Assay: co-IP; adult CD-1 mouse hippocampal lysate (0.5% Triton X-100), 1 mg protein, protein G sepharose with rabbit polyclonal mGluR5 antibody; blot for CaMKIIα

Ca2+/Calmodulin Kinase IIα (endogenous, mouse) (from UniProt P11798 1-478)
binding: binds
